Assay results reported in PubChem BioAssay AID2685 (National Center for Advancing Translational Sciences (NCATS), 2010).
This is one part of the list. Further columns of the screen follow, without active or inactive calls. The list favours compounds with an active or inconclusive main result. The note in brackets gives the kind of curve behind each potency; many fits are weak.

Assay: qHTS Assay for Lipid Storage Modulators in Drosophila S3 Cells;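 for cell number change: cells counted by Cell Tracker Red CMTPX staining in the red channel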
Conditions: BODIPY lipid droplet fluorescence, 18-24 h; for cell number change: measured here: cell count max response, cells fed with added oleic acid
How it was run: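 Laser-scanning cytometry quantifies lipid droplet accumulation (500–530 nm total intensity; droplet/cell object ratio) in oleic acid-fed (400 uM added) Drosophila S3 cells treated with a concentration series. 20 uM Triacsin C defined 100% inhibition.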

[1] = measured here: cell number channel AC50, cells fed with added oleic acid
[2] = measured here: lipid fluorescence (Fed channel) AC50, cells fed with added oleic acid

| Structure (SMILES) | cell number change [%] | AC50 [1] | AC50 [2] |
| --- | --- | --- | --- |
| Cc1cccc(-c2cccc(NC(=O)C3CCCN(C(=O)c4csc(C)n4)C3)c2)c1 (stereo unspecified) | -40.4 | 13 µM [falling, partial curve, poor fit] | 13 µM [falling, partial curve] |
| COc1ccccc1NC(=O)NC1CC(=O)N(c2ccc3c(c2)OCCO3)C1 (stereo unspecified) | -69.5 | 23.1 µM [falling, single point] | 18.4 µM [falling, single point] |
| Cc1cc(C)cc(OCC(=O)N/N=C/c2ccncc2)c1 | 5.93 |  | 0.461 µM [rising, full curve, poor fit] |
| COCCn1c(C(F)(F)F)ccc(NC(=O)c2ccccc2)c1=O |  |  | 11.6 µM [falling, single point] |
| O=C(Nc1cc2c3c(c1)CC(=O)N3CCC2)c1ccc(F)cc1 | 41.8 | 13 µM [rising, partial curve] |  |
| Cc1cc(=O)c(C(=O)O)nn1-c1ccccc1 | -36.1 | 29.1 µM [falling, single point] | 20.6 µM [falling, single point] |
| O=C(O)CSc1nnc(-c2ccccc2Br)n1-c1cccc(C(F)(F)F)c1 | -32.5 | 0.231 µM [falling, full curve, poor fit] | 29.1 µM [falling, single point] |
| O=C(CNC(=O)c1cc(Cl)nc2ccccc12)Nc1ccccc1Br | 0.134 |  |  |
| CCCC[n+]1ccc(-c2nc3ccc([N+](=O)[O-])cc3[nH]2)cc1 |  | 0.00461 µM [rising, full curve, poor fit] |  |
| CN1CCN(c2nc(-c3ccccc3)c3cc(Cl)ccc3n2)CC1 | 15.7 |  | 0.731 µM [rising, full curve, poor fit] |
| CCOc1cc(/C=C2\N=C(SC(C)C(N)=O)N(c3ccc(OC(F)F)cc3)C2=O)ccc1O (stereo unspecified) | -23.4 |  | 29.1 µM [falling, single point] |
| Cc1ccc(C(=O)Nc2nc3ccccc3n2CCN2CCCC2)cc1 | 3.56 |  | 29.1 µM [rising, single point] |
| Cc1ccc(-c2cc(C(=O)N3CCc4ccccc4C3)no2)cc1 | 1.49 |  | 6.51 µM [falling, single point] |
| COc1ccc(NC(=O)CNc2cc(C)ccc2C)cc1S(=O)(=O)N1CCOCC1 | 4.19 |  | 4.11 µM [rising, single point] |
| CCCCNC(=O)Nc1ccccc1C(=O)Nc1ccc(OC)cc1 | 43.5 | 2.31 µM [rising, full curve] | 16.4 µM [rising, partial curve] |
| O=[N+]([O-])c1ccc(NC(=S)NCCc2ccccc2)cc1 | -62.1 | 11.6 µM [falling, partial curve] | 11.6 µM [falling, partial curve] |
| COc1cccc(-c2nc(CS(=O)(=O)CC(=O)Nc3ccc(F)cc3F)c(C)o2)c1 |  |  | 25.9 µM [rising, partial curve] |
| C1CCC(CNc2c3c(nc4nnnn24)CCCC3)CC1 | -18.9 |  | 1.3 µM [rising, full curve, poor fit] |

Part of the list above, in CSV form:
Structure (SMILES),cell number change [%],AC50 [1],AC50 [2]
O=[N+]([O-])c1ccc(NC(=S)NCCc2ccccc2)cc1,-62.1,"11.6 µM [falling, partial curve]","11.6 µM [falling, partial curve]"
COc1cccc(-c2nc(CS(=O)(=O)CC(=O)Nc3ccc(F)cc3F)c(C)o2)c1,,,"25.9 µM [rising, partial curve]"

Following part:

| Structure (SMILES) | cell number change [%] | AC50 [1] | AC50 [2] |
| --- | --- | --- | --- |
| Cc1ccc(C)c(OCCC(=O)Nc2cccc(S(=O)(=O)NC3=NCCCCC3)c2)c1 | -16.5 |  | 32.6 µM [falling, single point] |
| Cc1ccc(-n2nc3c(=O)n(CCCC(=O)NCc4cccc(Cl)c4)nc(C)c3c2C)cc1 | -17.6 |  | 0.92 µM [rising, full curve] |
| CC1=NN(c2ccc(Br)cc2)C(=O)/C1=C/c1ccc(-c2ccccc2C(=O)O)o1 | 15.5 |  | 6.51 µM [falling, single point] |
| Cc1cc(NC(=O)c2ccccc2Cl)c(C(C)C)cc1O | -8.92 |  | 0.00411 µM [falling, full curve, poor fit] |
| O=C(O)c1cccc(OCCN2CCCC2=O)c1 | -17.4 |  | 6.51 µM [falling, single point] |
| COCCN(Cc1ccccc1)C(=O)c1cccc(S(=O)(=O)N2CCCc3ccccc32)c1 | 4.67 |  | 1.03 µM [falling, full curve] |
| O=C(c1ccc([N+](=O)[O-])o1)N1CCc2ccccc21 | 13.6 |  | 0.206 µM [falling, full curve, poor fit] |
| COc1ccc(OC)c(-c2csc(CCn3nc(C)cc3C)n2)c1 | 62 | 11.6 µM [rising, partial curve] | 29.1 µM [rising, partial curve, poor fit] |
| CC1CCCCN1c1ncnc(N)c1[N+](=O)[O-] (stereo unspecified) | 13.1 |  |  |
| O=C1CCC(/C=C/c2ccccc2)=NN1Cc1ccccc1 | -28 | 0.058 µM [rising, partial curve, poor fit] |  |
| CCOC(=O)CSc1ccc(C(=O)Nc2ccc(OC)cc2)cn1 | 23.7 | 3.26 µM [falling, single point] | 4.11 µM [falling, single point] |
| COc1cc(/C=N/NC(=O)c2ccncc2)ccc1OCC(=O)Nc1ccccc1 | 5.04 |  | 6.51 µM [falling, single point] |
| CCC(=O)Nc1c(C(=O)Nc2cccc(OC)c2)oc2ccccc12 | -6.99 |  | 32.6 µM [falling, single point] |
| Cc1cccc(CN2CCc3c([nH]c4ccccc34)C2CC(C)C)n1 (stereo unspecified) | -18.1 |  | 10.3 µM [falling, partial curve] |
| CC1SC(C)C(=O)N(CC(=O)Nc2ccc([N+](=O)[O-])cc2)C1=O (stereo unspecified) | 14.5 | 6.51 µM [falling, single point] | 6.51 µM [falling, single point] |
| O=C(/C=C/c1ccc2c(c1)OCO2)Nc1ccc(Cl)cn1 |  | 0.184 µM [rising, full curve, poor fit] | 0.184 µM [rising, full curve, poor fit] |
| COc1ccc(O)c(C(=O)c2cnc3c(c2)CN(C)C(=O)N3)c1 | 80.4 |  | 29.1 µM [rising, single point] |
| COCCN(Cc1cc2cc3c(cc2[nH]c1=O)OCO3)C(=O)c1cccs1 | 17.3 |  | 0.00651 µM [rising, full curve, poor fit] |
